Measurements: the supplement of paper PMC10077471
Whole data set: some 1,900 compounds, median “excess over highest single agent (ExcessHSA) synergy score, 6x6 matrix” near -83, cut for the lowest 2% near -370. The list shows a part of the results.

tested on: NCI-H446; test: excess over highest single agent (ExcessHSA) synergy score, 6x6 matrix; higher = less synergy (more negative = stronger synergy); settings: 72 h; CellTiter-Glo viability

SMILES | excess over highest single agent
CN1[C@@H]2CC(O)C[C@H]1[C@@H]1O[C@@H]12 (stereo partly drawn) + Cc1sc2c(c1C)C(c1ccc(Cl)cc1)=N[C@@H](CC(=O)OC(C)(C)C)c1nnc(C)n1-2 [NCGC00250412-19] | -7.73
C=C1CC[C@@H]2[C@](C)(CO)[C@H](O)CC[C@@]2(C)[C@@H]1C/C=C1/C(=O)OC[C@H]1O + Cc1sc2c(c1C)C(c1ccc(Cl)cc1)=N[C@@H](CC(=O)OC(C)(C)C)c1nnc(C)n1-2 [NCGC00250412-19] | -250
Cc1cn([C@H]2C=C[C@@H](CO)O2)c(=O)[nH]c1=O + Cc1sc2c(c1C)C(c1ccc(Cl)cc1)=N[C@@H](CC(=O)OC(C)(C)C)c1nnc(C)n1-2 [NCGC00250412-19] | -148
CC/C(=C(\c1ccc(O)cc1)c1ccc(OCCNC)cc1)c1ccccc1 + Cc1sc2c(c1C)C(c1ccc(Cl)cc1)=N[C@@H](CC(=O)OC(C)(C)C)c1nnc(C)n1-2 [NCGC00250412-19] | 218
CNC(=O)c1cc(Oc2ccc(NC(=O)Nc3ccc(Cl)c(C(F)(F)F)c3)cc2)ccn1 + Cc1sc2c(c1C)C(c1ccc(Cl)cc1)=N[C@@H](CC(=O)OC(C)(C)C)c1nnc(C)n1-2 [NCGC00250412-19] | -34.1
COc1cccc2c1C(=O)c1c(O)c3c(c(O)c1C2=O)C[C@@](O)(C(C)=O)C[C@@H]3O[C@H]1C[C@H](N)[C@H](O)[C@H](C)O1 + Cc1sc2c(c1C)C(c1ccc(Cl)cc1)=N[C@@H](CC(=O)OC(C)(C)C)c1nnc(C)n1-2 [NCGC00250412-19] | -304
C=CC(=O)Nc1cc2c(Nc3ccc(F)c(Cl)c3)ncnc2cc1C#CC(C)(C)N1CCN(C)CC1 + Cc1sc2c(c1C)C(c1ccc(Cl)cc1)=N[C@@H](CC(=O)OC(C)(C)C)c1nnc(C)n1-2 [NCGC00250412-19] | -196
CNC1CCC(N(Cc2cccc(-c3ccncc3)c2)C(=O)c2sc3c(F)ccc(F)c3c2Cl)CC1 (stereo not drawn) + Cc1sc2c(c1C)C(c1ccc(Cl)cc1)=N[C@@H](CC(=O)OC(C)(C)C)c1nnc(C)n1-2 [NCGC00250412-19] | -46.3
O=c1oc2c(O)c(O)cc3c(=O)oc4c(O)c(O)cc1c4c23 + Cc1sc2c(c1C)C(c1ccc(Cl)cc1)=N[C@@H](CC(=O)OC(C)(C)C)c1nnc(C)n1-2 [NCGC00250412-19] | -74.5
CC(=O)CC(c1ccccc1)c1c(O)c2ccccc2oc1=O (stereo not drawn) + Cc1sc2c(c1C)C(c1ccc(Cl)cc1)=N[C@@H](CC(=O)OC(C)(C)C)c1nnc(C)n1-2 [NCGC00250412-19] | -82.9
CC(=O)OCC(=O)[C@@]12OC(C)(C)O[C@@H]1C[C@H]1[C@@H]3C[C@H](F)C4=CC(=O)C=C[C@]4(C)[C@@]3(F)[C@@H](O)C[C@@]12C + Cc1sc2c(c1C)C(c1ccc(Cl)cc1)=N[C@@H](CC(=O)OC(C)(C)C)c1nnc(C)n1-2 [NCGC00250412-19] | -58.6
O=S(=O)(CC1CS1)c1ccc(Oc2ccccc2)cc1 (stereo not drawn) + Cc1sc2c(c1C)C(c1ccc(Cl)cc1)=N[C@@H](CC(=O)OC(C)(C)C)c1nnc(C)n1-2 [NCGC00250412-19] | -165
CCC(C)(Oc1ccc(C2(c3ccc(OC(C)(CC)C(=O)O)cc3)CCCCC2)cc1)C(=O)O (stereo not drawn) + Cc1sc2c(c1C)C(c1ccc(Cl)cc1)=N[C@@H](CC(=O)OC(C)(C)C)c1nnc(C)n1-2 [NCGC00250412-19] | 21.3
COc1cc2nccc(Oc3ccc(NC(=O)NC4CC4)c(Cl)c3)c2cc1C(N)=O + Cc1sc2c(c1C)C(c1ccc(Cl)cc1)=N[C@@H](CC(=O)OC(C)(C)C)c1nnc(C)n1-2 [NCGC00250412-19] | -115
c1nc2c(NC3CCCCC3)nc(Nc3ccc(N4CCOCC4)cc3)nc2[nH]1 + Cc1sc2c(c1C)C(c1ccc(Cl)cc1)=N[C@@H](CC(=O)OC(C)(C)C)c1nnc(C)n1-2 [NCGC00250412-19] | -52.8
Cc1cnc(-c2cc(N3CCN(C(=O)CCS(C)(=O)=O)CC3)ncc2Cl)c(C)c1 + Cc1sc2c(c1C)C(c1ccc(Cl)cc1)=N[C@@H](CC(=O)OC(C)(C)C)c1nnc(C)n1-2 [NCGC00250412-19] | 125
CC[C@@]1(O)C[C@H](O[C@H]2C[C@H](N(C)C)[C@H](O[C@H]3C[C@H](O)[C@H](O[C@H]4CCC(=O)[C@H](C)O4)[C@H](C)O3)[C@H](C)O2)c2c(cc3c(c2O)C(=O)c2c(O)cccc2C3=O)[C@H]1C(=O)OC + Cc1sc2c(c1C)C(c1ccc(Cl)cc1)=N[C@@H](CC(=O)OC(C)(C)C)c1nnc(C)n1-2 [NCGC00250412-19] | -283
Cc1c(CN2CCN(C(=O)[C@H](C)O)CC2)sc2c(N3CCOCC3)nc(-c3cnc(N)nc3)nc12 + Cc1sc2c(c1C)C(c1ccc(Cl)cc1)=N[C@@H](CC(=O)OC(C)(C)C)c1nnc(C)n1-2 [NCGC00250412-19] | -434
CN1CCc2c(c3ccccc3n2Cc2ccc(C(=O)NO)cc2)C1 + Cc1sc2c(c1C)C(c1ccc(Cl)cc1)=N[C@@H](CC(=O)OC(C)(C)C)c1nnc(C)n1-2 [NCGC00250412-19] | 16

SMILES | excess over highest single agent
CS(=O)(=O)OCCCCOS(C)(=O)=O + Cc1sc2c(c1C)C(c1ccc(Cl)cc1)=N[C@@H](CC(=O)OC(C)(C)C)c1nnc(C)n1-2 [NCGC00250412-19] | -43.8
O=C(/C=C/c1ccc(O)cc1)c1ccc(O)cc1O + Cc1sc2c(c1C)C(c1ccc(Cl)cc1)=N[C@@H](CC(=O)OC(C)(C)C)c1nnc(C)n1-2 [NCGC00250412-19] | -121
CC(=O)N(C)c1cccc(-c2ccnc3c(C(=O)c4cccs4)cnn23)c1 + Cc1sc2c(c1C)C(c1ccc(Cl)cc1)=N[C@@H](CC(=O)OC(C)(C)C)c1nnc(C)n1-2 [NCGC00250412-19] | 23
C[C@H](NCc1ccc2c(c1)nc(NC(=O)c1ccc(-c3cn[nH]c3)s1)n2CCc1ccccc1)C(C)(C)C + Cc1sc2c(c1C)C(c1ccc(Cl)cc1)=N[C@@H](CC(=O)OC(C)(C)C)c1nnc(C)n1-2 [NCGC00250412-19] | -305
N#CCNC(=O)c1ccc(-c2ccnc(Nc3ccc(N4CCOCC4)cc3)n2)cc1 + Cc1sc2c(c1C)C(c1ccc(Cl)cc1)=N[C@@H](CC(=O)OC(C)(C)C)c1nnc(C)n1-2 [NCGC00250412-19] | 271
COCCNCCCn1c(C(=O)CF)c(-c2ccc(C)cc2)c2c(N)ncnc21 + Cc1sc2c(c1C)C(c1ccc(Cl)cc1)=N[C@@H](CC(=O)OC(C)(C)C)c1nnc(C)n1-2 [NCGC00250412-19] | 128
CC1(C)CC(O)CC(C)(C)N1[O] + Cc1sc2c(c1C)C(c1ccc(Cl)cc1)=N[C@@H](CC(=O)OC(C)(C)C)c1nnc(C)n1-2 [NCGC00250412-19] | -67.7
O=C(O)c1nc(=O)[nH]c(=O)[nH]1 + Cc1sc2c(c1C)C(c1ccc(Cl)cc1)=N[C@@H](CC(=O)OC(C)(C)C)c1nnc(C)n1-2 [NCGC00250412-19] | -48.1
CN(C)CCCN=c1c2ccccc2n(C)c2[nH]c(=O)n(C)c(=O)c12 + Cc1sc2c(c1C)C(c1ccc(Cl)cc1)=N[C@@H](CC(=O)OC(C)(C)C)c1nnc(C)n1-2 [NCGC00250412-19] | -34.1
NC(=O)Nc1cc(-c2ccc(CN3CCOCC3)cc2)sc1C(N)=O + Cc1sc2c(c1C)C(c1ccc(Cl)cc1)=N[C@@H](CC(=O)OC(C)(C)C)c1nnc(C)n1-2 [NCGC00250412-19] | -229
Cc1ncc(-c2ccnc(Nc3ccc(S(C)(=O)=O)cc3)n2)n1C(C)C + Cc1sc2c(c1C)C(c1ccc(Cl)cc1)=N[C@@H](CC(=O)OC(C)(C)C)c1nnc(C)n1-2 [NCGC00250412-19] | -28.3
COc1c(N2C[C@@H]3CCCN[C@@H]3C2)c(F)cc2c(=O)c(C(=O)O)cn(C3CC3)c12 + Cc1sc2c(c1C)C(c1ccc(Cl)cc1)=N[C@@H](CC(=O)OC(C)(C)C)c1nnc(C)n1-2 [NCGC00250412-19] | 41
CC1(C)CCC[C@]2(C)[C@H]3CC(=O)O[C@]3(C)CC[C@@H]12 + Cc1sc2c(c1C)C(c1ccc(Cl)cc1)=N[C@@H](CC(=O)OC(C)(C)C)c1nnc(C)n1-2 [NCGC00250412-19] | -54.6
COc1ncnc(NS(=O)(=O)c2ccc(N)cc2)c1OC + Cc1sc2c(c1C)C(c1ccc(Cl)cc1)=N[C@@H](CC(=O)OC(C)(C)C)c1nnc(C)n1-2 [NCGC00250412-19] | -98.9
Cc1ccccc1C(=O)c1ccc(Nc2ccc(Br)cc2N)cc1Cl + Cc1sc2c(c1C)C(c1ccc(Cl)cc1)=N[C@@H](CC(=O)OC(C)(C)C)c1nnc(C)n1-2 [NCGC00250412-19] | -45.5
COc1ccc(C(=O)CC(=O)c2ccc(C(C)(C)C)cc2)cc1 + Cc1sc2c(c1C)C(c1ccc(Cl)cc1)=N[C@@H](CC(=O)OC(C)(C)C)c1nnc(C)n1-2 [NCGC00250412-19] | -86.4
CC1(C)SCCN(S(=O)(=O)c2ccc(OCC#CCO)cc2)[C@H]1C(=O)NO + Cc1sc2c(c1C)C(c1ccc(Cl)cc1)=N[C@@H](CC(=O)OC(C)(C)C)c1nnc(C)n1-2 [NCGC00250412-19] | 50
Nc1nc2c(ncn2COCCO)c(=O)[nH]1 + Cc1sc2c(c1C)C(c1ccc(Cl)cc1)=N[C@@H](CC(=O)OC(C)(C)C)c1nnc(C)n1-2 [NCGC00250412-19] | 77.6
Cc1cc(N2CCOCC2)cc2[nH]c(-c3c(NC[C@@H](O)c4cccc(Cl)c4)cc[nH]c3=O)nc12 + Cc1sc2c(c1C)C(c1ccc(Cl)cc1)=N[C@@H](CC(=O)OC(C)(C)C)c1nnc(C)n1-2 [NCGC00250412-19] | -315

Pulled one by one from above:
SMILES | excess over highest single agent
CC1(C)SCCN(S(=O)(=O)c2ccc(OCC#CCO)cc2)[C@H]1C(=O)NO + Cc1sc2c(c1C)C(c1ccc(Cl)cc1)=N[C@@H](CC(=O)OC(C)(C)C)c1nnc(C)n1-2 [NCGC00250412-19] | 50
O=C(O)c1nc(=O)[nH]c(=O)[nH]1 + Cc1sc2c(c1C)C(c1ccc(Cl)cc1)=N[C@@H](CC(=O)OC(C)(C)C)c1nnc(C)n1-2 [NCGC00250412-19] | -48.1
